Measured values taken from patent US9926271B2, “Octahydrocyclopentapyrroles, their preparation and use” (The Trustees of Columbia University in the City of New York, priority 2013, dated 2018).
Some results were stated once for a whole list of compounds, not compound by compound.

Key:
[1] = biological target: RBP4-TTR interaction (Homo sapiens, UniProt P02753); test: TR-FRET (HTRF) assay for retinol-induced RBP4-TTR interaction; type: biochemical; set-up: human RBP4 fragment (amino acids 19-201); host or cells: Gold(DE3)pLysS E. coli strain (Stratagene), pMAL-c4x vector; conditions: in vitro
From the text: TR-FRET Assay for Retinol-Induced RBP4-TTR Interaction
Binding of a desired RBP4 antagonist displaces retinol and induces hindrance for RBP4-TTR interaction resulting in the decreased FRET signal (FIG. 7). Bacterially expressed MBP-RBP4 and untagged TTR were used in this assay. […] Following cell lysis, recombinant RBP4 was purified from the soluble fraction using the ACTA FPLC system (GE Healthcare) equipped with the 5-ml the MBP Trap HP column. Human untagged TTR was purchased from Calbiochem. Untagged TTR was labeled directly with Eu^3+ Cryptate-NHS using the HTRF Cryptate Labeling kit from CisBio following the manufacturer's recommendations. HTRF assay was performed in white low volume 384 well plates (Greiner-Bio) in a final assay volume of 16 μl per well. The reaction buffer contained 10 mM Tris-HCl pH 7.5, 1 mM DTT, 0.05% NP-40, 0.05% Prionex, 6% glycerol, and 400 mM RE. […] Titration of test compounds in this assay was conducted in the presence of 1 μM retinol. All reactions were assembled in the dark under dim red light and incubated overnight at +4° C. wrapped in aluminum foil. TR-FRET signal was measured in the SpectraMax M5e Multimode Plate Reader (Molecular Device). Fluorescence was excited at 337 nm and two readings per well were taken: Reading 1 for time-gated energy transfer from Eu(K) to d2 (337 nm excitation, 668 nm emission, counting delay 75 microseconds, counting window 100 microseconds) and Reading 2 for Eu(K) time-gated fluorescence (337 nm excitation, 620 nm emission, counting delay 400 microseconds, counting window 400 microseconds). The TR-FRET signal was expressed as the ratio of fluorescence intensity: Flu665/Flu620×10,000.

[2] = biological target: RBP4 (Homo sapiens, UniProt P02753); test: Scintillation proximity RBP4 binding assay (SPA); set-up: Untagged human RBP4 purified from urine of tubular proteinuria patients; purchased Fitzgerald Industries International; host or cells: urine of tubular proteinuria patients; conditions: in vitro
Description: Scintillation Proximity RBP4 Binding Assay
Untagged human RBP4 purified from urine of tubular proteinuria patients was purchased from Fitzgerald Industries International. It was biotinylated using the EZ-Link Sulfo-NHS-LC-Biotinylation kit from Pierce following the manufacturer's recommendations. Binding experiments were performed in 96-well plates (OptiPlate, PerkinElmer) in a final assay volume of 100 μl per well in SPA buffer (1×PBS, pH 7.4, 1 mM EDTA, 0.1% BSA, 0.5% CHAPS). The reaction mix contained 10 nM ^3H-Retinol (48.7 Ci/mmol; PerkinElmer), 0.3 mg/well Streptavidin-PVT beads, 50 nM biotinylated RBP4 and a test compound. Nonspecific binding was determined in the presence of 20 μM of unlabeled retinol. The reaction mix was assembled in the dark under dim red light. The plates were sealed with clear tape (TopSeal-A: 96-well microplate, PerkinElmer), wrapped in the aluminum foil, and allowed to equilibrate 6 hours at room temperature followed by overnight incubation at +4° C. Radiocounts were measured using a TopCount NXT counter (Packard Instrument Company).

O=C(c1nnc2ccc(F)cn12)N1C[C@H]2C[C@@H](c3ccccc3C(F)(F)F)C[C@H]2C1 [Compound 19, (6-Fluoro-[1,2,4]triazolo[4,3-a]pyridin-3-yl)((3aR,5R,6aS)-5-(2(trifluoromethyl)phenyl)hexahydrocyclopenta[c]pyrrol-2(1N)-yl)methanone]
antagonism of retinol-dependent RBP4-TTR interaction (HTRF), result in words [1]: antagonized retinol-dependent RBP4-TTR interaction
RBP4 binding (SPA), result in words [2]: binded to RBP4

N#Cc1ccc2nnc(C(=O)N3C[C@H]4C[C@@H](c5ccccc5C(F)(F)F)C[C@H]4C3)n2c1 [Compound 32, 3-((3aR,5R,6aS)-5-(2-(Trifluoromethyl)phenyl)octahydrocyclopenta[c]pyrrole-2-carbonyl)-[1,2,6]triazolo[4,3-a]pyridine-6-carbonitrile]
antagonism of retinol-dependent RBP4-TTR interaction (HTRF), result in words [1]: antagonized retinol-dependent RBP4-TTR interaction
RBP4 binding (SPA), result in words [2]: binded to RBP4

CCOc1ccc2nnc(C(=O)N3C[C@H]4C[C@@H](c5ccccc5C(F)(F)F)C[C@H]4C3)n2c1 [Compound 24, (6-Ethoxy-[1,2,4]triazolo[4,3-a]pyridin-3-yl)((3aR,5R,6aS)-5-(2-(trifluoromethyl)phenyl)hexahydrocyclopenta[c]pyrrol-2(1H)-yl)methanone]
antagonism of retinol-dependent RBP4-TTR interaction (HTRF), result in words [1]: antagonized retinol-dependent RBP4-TTR interaction
RBP4 binding (SPA), result in words [2]: binded to RBP4

CNS(=O)(=O)c1ccc2nnc(C(=O)N3C[C@H]4C[C@@H](c5ccccc5C(F)(F)F)C[C@H]4C3)n2c1 [Compound 31, N-Methyl-3-((3aR,5R,6aS)-5-(2-(trifluoromethyl)phenyl)octahydrocyclopenta[c]pyrrole-2-carbonyl)-[1,2,4]triazolo[4,3-a]pyridine-6-sulfonamide]
antagonism of retinol-dependent RBP4-TTR interaction (HTRF), result in words [1]: antagonized retinol-dependent RBP4-TTR interaction
RBP4 binding (SPA), result in words [2]: binded to RBP4
